From the supplement of paper PMC10849652
The other results are listed elsewhere or left out.

By UniProt entry, the sequences of proteins in these tests, tags left out. Where a name states a change or a piece, a line headed by the entry shows the natural chain unless it says otherwise.
UniProt P78347: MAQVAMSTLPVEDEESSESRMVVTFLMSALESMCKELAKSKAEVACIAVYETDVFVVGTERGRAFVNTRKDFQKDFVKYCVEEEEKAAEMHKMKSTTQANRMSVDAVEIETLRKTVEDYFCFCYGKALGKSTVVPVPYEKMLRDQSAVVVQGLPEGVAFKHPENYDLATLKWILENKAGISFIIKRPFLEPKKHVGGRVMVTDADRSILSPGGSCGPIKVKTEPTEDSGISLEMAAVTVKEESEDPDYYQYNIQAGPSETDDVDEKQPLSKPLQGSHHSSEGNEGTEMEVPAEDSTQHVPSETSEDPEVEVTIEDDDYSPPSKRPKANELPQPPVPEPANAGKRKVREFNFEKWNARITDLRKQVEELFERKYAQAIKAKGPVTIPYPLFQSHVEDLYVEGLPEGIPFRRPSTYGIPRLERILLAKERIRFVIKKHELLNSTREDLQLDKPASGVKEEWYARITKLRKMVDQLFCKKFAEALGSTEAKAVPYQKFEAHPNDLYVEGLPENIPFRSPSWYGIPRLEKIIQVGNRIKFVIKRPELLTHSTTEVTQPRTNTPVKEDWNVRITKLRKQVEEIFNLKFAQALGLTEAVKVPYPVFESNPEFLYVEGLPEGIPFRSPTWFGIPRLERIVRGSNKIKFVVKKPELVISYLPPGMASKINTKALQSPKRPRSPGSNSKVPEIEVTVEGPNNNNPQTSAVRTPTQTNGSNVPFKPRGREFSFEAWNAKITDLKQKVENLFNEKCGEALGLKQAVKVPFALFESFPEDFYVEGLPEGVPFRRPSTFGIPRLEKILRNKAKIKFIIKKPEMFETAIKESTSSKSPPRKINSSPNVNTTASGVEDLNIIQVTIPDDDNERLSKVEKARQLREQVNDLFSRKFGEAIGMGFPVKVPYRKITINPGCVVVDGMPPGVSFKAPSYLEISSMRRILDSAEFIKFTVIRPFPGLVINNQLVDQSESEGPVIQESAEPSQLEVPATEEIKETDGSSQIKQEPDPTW
UniProt Q9BXL5: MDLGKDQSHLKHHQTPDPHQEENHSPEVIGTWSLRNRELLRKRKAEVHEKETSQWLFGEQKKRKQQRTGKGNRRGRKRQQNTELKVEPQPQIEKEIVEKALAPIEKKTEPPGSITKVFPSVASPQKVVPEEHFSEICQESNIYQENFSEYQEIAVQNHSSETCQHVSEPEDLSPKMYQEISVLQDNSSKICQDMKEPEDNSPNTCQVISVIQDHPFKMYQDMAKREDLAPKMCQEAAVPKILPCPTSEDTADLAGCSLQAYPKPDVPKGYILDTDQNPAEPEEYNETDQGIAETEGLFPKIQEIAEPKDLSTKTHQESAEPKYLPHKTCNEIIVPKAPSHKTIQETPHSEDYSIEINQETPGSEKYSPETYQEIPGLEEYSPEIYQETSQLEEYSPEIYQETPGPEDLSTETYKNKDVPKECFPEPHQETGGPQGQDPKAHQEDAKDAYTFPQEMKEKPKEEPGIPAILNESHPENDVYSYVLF
UniProt O15379: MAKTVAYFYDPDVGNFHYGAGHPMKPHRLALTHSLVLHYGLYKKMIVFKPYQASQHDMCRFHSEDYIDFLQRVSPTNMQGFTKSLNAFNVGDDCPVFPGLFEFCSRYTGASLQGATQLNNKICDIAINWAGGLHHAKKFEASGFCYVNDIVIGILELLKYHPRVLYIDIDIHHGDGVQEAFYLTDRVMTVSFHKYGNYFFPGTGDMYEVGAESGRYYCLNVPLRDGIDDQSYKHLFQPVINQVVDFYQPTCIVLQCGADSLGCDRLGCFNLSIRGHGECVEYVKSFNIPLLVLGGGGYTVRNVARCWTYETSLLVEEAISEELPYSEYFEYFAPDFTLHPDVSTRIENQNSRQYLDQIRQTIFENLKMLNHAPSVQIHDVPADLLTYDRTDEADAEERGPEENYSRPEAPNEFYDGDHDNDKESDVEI
UniProt P02008: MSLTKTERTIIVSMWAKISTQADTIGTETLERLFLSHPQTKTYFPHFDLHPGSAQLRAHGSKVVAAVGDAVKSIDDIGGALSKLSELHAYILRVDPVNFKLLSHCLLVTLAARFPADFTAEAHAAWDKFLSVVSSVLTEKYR
UniProt P30711: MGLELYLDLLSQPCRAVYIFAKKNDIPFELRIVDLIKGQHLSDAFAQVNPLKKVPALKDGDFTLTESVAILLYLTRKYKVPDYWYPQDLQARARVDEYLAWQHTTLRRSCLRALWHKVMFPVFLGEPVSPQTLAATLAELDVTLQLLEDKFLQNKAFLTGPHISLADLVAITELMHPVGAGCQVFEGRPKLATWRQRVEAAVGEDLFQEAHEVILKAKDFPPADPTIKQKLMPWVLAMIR
UniProt P56524: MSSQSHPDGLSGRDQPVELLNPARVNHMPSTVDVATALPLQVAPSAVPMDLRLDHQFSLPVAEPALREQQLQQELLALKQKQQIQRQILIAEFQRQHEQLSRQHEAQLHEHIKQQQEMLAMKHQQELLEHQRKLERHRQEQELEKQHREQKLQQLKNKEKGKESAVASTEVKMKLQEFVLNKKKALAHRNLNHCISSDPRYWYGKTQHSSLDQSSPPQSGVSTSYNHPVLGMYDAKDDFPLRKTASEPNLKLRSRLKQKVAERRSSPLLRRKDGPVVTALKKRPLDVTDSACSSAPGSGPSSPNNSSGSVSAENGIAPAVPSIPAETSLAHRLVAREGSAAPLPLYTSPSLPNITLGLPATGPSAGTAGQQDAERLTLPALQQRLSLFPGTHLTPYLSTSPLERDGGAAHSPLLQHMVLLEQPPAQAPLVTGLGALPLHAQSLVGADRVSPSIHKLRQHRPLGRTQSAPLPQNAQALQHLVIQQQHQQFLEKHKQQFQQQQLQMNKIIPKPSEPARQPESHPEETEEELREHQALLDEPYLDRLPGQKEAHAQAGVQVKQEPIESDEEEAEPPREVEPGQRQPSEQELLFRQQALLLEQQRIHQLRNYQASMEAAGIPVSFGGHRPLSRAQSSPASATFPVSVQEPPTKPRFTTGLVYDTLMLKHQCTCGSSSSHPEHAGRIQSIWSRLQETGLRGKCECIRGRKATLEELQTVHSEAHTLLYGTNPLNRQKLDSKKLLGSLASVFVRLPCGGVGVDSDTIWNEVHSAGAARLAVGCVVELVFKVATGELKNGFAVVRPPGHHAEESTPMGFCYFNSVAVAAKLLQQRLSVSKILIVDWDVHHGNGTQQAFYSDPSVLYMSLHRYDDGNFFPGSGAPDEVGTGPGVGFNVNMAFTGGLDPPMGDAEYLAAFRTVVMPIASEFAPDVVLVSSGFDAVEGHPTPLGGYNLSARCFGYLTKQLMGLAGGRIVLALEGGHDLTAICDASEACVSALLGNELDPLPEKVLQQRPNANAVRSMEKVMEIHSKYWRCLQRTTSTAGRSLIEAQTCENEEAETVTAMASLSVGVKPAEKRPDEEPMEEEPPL
UniProt Q6AI08: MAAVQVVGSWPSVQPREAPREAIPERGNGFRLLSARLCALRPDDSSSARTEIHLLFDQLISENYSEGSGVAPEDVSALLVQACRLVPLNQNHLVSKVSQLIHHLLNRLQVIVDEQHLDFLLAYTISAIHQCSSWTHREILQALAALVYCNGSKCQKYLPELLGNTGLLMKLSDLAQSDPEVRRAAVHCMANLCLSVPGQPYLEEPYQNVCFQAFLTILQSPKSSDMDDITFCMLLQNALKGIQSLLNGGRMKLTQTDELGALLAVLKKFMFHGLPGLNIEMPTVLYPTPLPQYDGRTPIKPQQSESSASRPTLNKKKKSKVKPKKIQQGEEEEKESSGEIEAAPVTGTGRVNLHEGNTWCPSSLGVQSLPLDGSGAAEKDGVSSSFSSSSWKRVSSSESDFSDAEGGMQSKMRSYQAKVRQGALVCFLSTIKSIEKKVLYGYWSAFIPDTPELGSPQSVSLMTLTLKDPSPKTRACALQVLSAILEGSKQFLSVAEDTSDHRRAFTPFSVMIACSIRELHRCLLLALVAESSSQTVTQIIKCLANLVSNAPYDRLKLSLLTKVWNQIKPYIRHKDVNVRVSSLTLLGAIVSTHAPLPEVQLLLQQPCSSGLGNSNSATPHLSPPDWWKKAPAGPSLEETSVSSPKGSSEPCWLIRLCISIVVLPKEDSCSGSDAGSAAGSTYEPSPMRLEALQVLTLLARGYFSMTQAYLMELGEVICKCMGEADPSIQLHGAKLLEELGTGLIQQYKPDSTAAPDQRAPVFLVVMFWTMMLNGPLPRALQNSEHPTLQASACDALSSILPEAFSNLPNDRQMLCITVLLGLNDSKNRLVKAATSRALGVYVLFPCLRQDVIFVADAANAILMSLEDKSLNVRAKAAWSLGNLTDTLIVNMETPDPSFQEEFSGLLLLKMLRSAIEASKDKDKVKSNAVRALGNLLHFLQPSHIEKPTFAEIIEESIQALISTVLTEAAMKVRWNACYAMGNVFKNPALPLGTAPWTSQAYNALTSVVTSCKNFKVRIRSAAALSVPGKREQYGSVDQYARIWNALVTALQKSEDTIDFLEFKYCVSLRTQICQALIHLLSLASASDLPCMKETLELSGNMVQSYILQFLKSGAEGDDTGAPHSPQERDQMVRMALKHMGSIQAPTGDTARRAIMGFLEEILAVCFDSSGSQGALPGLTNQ
UniProt Q7Z4H3: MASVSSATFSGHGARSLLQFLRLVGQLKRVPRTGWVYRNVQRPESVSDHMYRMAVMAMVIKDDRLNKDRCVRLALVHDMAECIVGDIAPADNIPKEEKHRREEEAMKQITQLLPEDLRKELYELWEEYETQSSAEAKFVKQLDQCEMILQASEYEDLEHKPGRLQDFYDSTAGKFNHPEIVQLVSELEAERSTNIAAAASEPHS
UniProt O94992, whole entry, looked up: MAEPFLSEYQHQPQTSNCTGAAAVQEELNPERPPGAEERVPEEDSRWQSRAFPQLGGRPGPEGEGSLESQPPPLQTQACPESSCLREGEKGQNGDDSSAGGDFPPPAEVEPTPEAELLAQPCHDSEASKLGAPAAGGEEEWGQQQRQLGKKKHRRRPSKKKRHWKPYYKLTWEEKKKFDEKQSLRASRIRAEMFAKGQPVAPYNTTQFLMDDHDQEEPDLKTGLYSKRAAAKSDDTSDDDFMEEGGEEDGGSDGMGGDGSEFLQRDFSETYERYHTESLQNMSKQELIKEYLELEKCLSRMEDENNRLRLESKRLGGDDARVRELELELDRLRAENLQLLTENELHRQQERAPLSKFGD
UniProt Q9BSE4: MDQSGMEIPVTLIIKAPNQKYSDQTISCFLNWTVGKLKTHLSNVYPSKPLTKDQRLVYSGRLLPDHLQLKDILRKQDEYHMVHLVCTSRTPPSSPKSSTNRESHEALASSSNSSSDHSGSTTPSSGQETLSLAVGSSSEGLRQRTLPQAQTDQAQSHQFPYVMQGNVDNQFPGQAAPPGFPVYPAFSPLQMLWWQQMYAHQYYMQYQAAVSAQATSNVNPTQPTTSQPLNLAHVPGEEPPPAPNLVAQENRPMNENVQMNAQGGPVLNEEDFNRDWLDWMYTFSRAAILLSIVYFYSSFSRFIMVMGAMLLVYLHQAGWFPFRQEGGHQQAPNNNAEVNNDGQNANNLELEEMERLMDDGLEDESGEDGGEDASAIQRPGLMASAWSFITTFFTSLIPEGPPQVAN
UniProt Q15011: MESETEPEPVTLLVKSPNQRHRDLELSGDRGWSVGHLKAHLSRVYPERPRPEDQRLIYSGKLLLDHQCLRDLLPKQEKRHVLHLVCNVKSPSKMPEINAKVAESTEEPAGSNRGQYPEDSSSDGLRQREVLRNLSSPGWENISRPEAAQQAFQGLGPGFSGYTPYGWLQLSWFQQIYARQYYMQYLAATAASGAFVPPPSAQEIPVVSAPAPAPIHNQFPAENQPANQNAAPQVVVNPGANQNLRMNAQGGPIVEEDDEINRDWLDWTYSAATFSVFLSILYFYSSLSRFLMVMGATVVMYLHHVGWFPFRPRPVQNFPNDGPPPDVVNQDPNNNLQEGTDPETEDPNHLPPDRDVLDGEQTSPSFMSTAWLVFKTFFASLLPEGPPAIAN
UniProt P52655, whole entry, looked up: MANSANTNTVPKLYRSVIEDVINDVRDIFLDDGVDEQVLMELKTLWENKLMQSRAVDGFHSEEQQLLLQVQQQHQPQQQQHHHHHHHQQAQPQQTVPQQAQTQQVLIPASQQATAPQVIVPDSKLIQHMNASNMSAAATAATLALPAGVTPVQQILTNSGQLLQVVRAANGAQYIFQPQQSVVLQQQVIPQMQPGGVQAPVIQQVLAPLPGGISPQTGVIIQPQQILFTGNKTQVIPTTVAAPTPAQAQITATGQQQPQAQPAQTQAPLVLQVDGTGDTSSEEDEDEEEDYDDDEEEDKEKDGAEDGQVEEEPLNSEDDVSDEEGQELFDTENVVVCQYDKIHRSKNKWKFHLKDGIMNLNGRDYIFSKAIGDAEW
UniProt P08263: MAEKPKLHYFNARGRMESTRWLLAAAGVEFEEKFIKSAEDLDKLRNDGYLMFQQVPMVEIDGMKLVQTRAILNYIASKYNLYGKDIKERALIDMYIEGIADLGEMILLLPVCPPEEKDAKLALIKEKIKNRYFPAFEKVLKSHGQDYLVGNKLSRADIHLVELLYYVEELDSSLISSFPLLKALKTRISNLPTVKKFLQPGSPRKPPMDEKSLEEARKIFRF

Assays:
Experiment in all cases: log2 fold change, soluble protein after heating vs DMSO (PISA); higher = thermal stabilisation; K562 cells, 10 uM, 30 min; active = over 0.2 and 3.5 SD of the protein, either way, in both replicates (recomputed)
[1] = compound: C1=CC=C(C=C1)[C@H](COC2=CC3=C(C=C2)NC(=O)N3)NC(=O)C4=CC=CN(C4=O)CC5=CC(=C(C=C5)F)F
In short: (§1)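 Soluble protein was quantified by TMTpro 16plex LC-MS/MS after channel sums were equalised. It was obtained as the supernatant after 21,000xg for 90 min from pooled aliquots of K562 cells (2×10^6 cells/mL, 10 μM compound, 30 min) heated for 3 min across 48°C-58°C and extracted in PBS with 0.5% NP-40 at 4°C. Thermal stability values are relative to control samples and come from duplicates. They are given as log2 fold changes.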

[2] = compound: CC1=C(SC2=C1C(=N[C@H](C3=NN=C(N32)C)CC(=O)N)C4=CC=C(C=C4)Cl)C
In short: as §1

[3] = compound: CC1=C2C(=CC=C1)N=C(N(C2=O)C3=CC=CC=C3C)CN4C=NC5=C(N=CN=C54)N
In short: as §1

[4] = compound: Cc1sc2c(c1C)C(c1ccc(Cl)cc1)=N[C@@H](CC(=O)OC(C)(C)C)c1nnc(C)n1-2
In short: as §1

[5] = compound: c1ccc([C@@H]2C[C@H]2NC2CCNCC2)cc1
In short: as §1

Measured: log2 fold change

GTF2I (UniProt P78347)
inactive: [1] -0.07 | [2] 0.077 | [3] 0.104 | [4] -0.037 | [5] 0.007

HEMGN (UniProt Q9BXL5)
inactive: [1] 0.011 | [2] -0.003 | [3] -0.004 | [4] -0.006 | [5] 0.013

HDAC3 isoform 2 (UniProt O15379)
inactive: [1] -0.013 | [2] -0.209 | [3] 0.033 | [4] -0.016 | [5] -0.006

HBZ (UniProt P02008)
inactive: [1] 0.047 | [2] 0.191 | [3] 0.091 | [4] -0.132 | [5] -0.009

HEATR3 (UniProt Q7Z4Q2)
inactive: [1] -0.073 | [2] -0.014 | [3] 0.026 | [4] 0.004 | [5] -0.04

HERC2 (UniProt O95714)
inactive: [1] -0.189 | [2] -0.017 | [3] -0.029 | [4] 0.327 | [5] -0.001

GSTT1 (UniProt P30711)
inactive: [1] 0.032 | [2] 0.121 | [3] 0.165 | [4] -0.146 | [5] 0.026

HERC1 (UniProt Q15751)
inactive: [1] -0.009 | [2] 0.012 | [3] 0.036 | [4] 0.007 | [5] 0

HDAC4 (UniProt P56524)
inactive: [1] -0.191 | [2] -0.017 | [3] 0.031 | [4] -0.07 | [5] 0.152

GSK3A (UniProt P49840)
inactive: [1] 0.006 | [2] 0.099 | [3] 0.02 | [4] -0.014 | [5] -0.034

GSTCD (UniProt Q8NEC7)
inactive: [1] 0 | [2] 0.039 | [3] 0.139 | [4] 0.13 | [5] -0.091

HEATR6 (UniProt Q6AI08)
inactive: [1] 0.125 | [2] 0.038 | [3] 0.114 | [4] 0.016 | [5] -0.009

HDDC2 (UniProt Q7Z4H3)
inactive: [1] 0.009 | [2] 0.057 | [3] -0.012 | [4] -0.071 | [5] -0.038

HEXIM1 (UniProt O94992)
inactive: [1] 0.038 | [2] -0.012 | [3] 0.056 | [4] -0.003 | [5] -0.028

HAUS6 (UniProt Q7Z4H7)
inactive: [1] 0.029 | [2] -0.2 | [4] 0.08 | [5] 0.098

GUF1 (UniProt Q8N442)
inactive: [3] 0.014 | [4] -0.126

HEATR1 (UniProt Q9H583)
inactive: [1] 0.043 | [3] 0.016 | [4] -0.018

HERPUD2 (UniProt Q9BSE4)
inactive: [1] 0.064 | [2] 0.01 | [3] 0.058 | [5] 0.155

Pulled one by one from the list above (two):
HERPUD2 (UniProt Q9BSE4)
inactive: [1] 0.064 | [2] 0.01 | [3] 0.058 | [5] 0.155

HEXIM1 (UniProt O94992)
inactive: [1] 0.038 | [2] -0.012 | [3] 0.056 | [4] -0.003 | [5] -0.028

Remaining list, next part

HECTD4 (UniProt Q9Y4D8)
inactive: [3] 0.023

HERPUD1 (UniProt Q15011)
inactive: [3] 0.016 | [4] -0.049

GTPBP8 (UniProt Q8N3Z3)
inactive: [3] 0.044 | [4] -0.034

GTF2A1 (UniProt P52655)
inactive: [1] 0.04 | [2] -0.021 | [3] -0.01 | [4] -0.004 | [5] -0.006

HECTD1 (UniProt Q9ULT8)
inactive: [1] 0.009 | [2] 0 | [3] 0.098 | [4] 0.051 | [5] -0.004

HES1 (UniProt Q14469)
inactive: [2] 0.091 | [4] -0.076 | [5] 0.057

GSPT2 (UniProt Q8IYD1)
inactive: [1] -0.02 | [2] -0.06 | [3] 0.087 | [5] 0.07

HGF (UniProt P14210)
inactive: [1] -0.011 | [2] -0.101 | [4] 0.103 | [5] 0.093

GSTA1 (UniProt P08263)
inactive: [1] -0.111 | [3] 0.167 | [4] 0.096

HAUS2 (UniProt Q9NVX0)
inactive: [2] 0.051 | [5] 0.069

HACD2 (UniProt Q6Y1H2)
inactive: [2] -0.028 | [4] 0.067 | [5] 0.018
